Laboratory results as given in patent US4146622A, “Aziridinyl quinone anti-transplanted tumor agents” (priority 1977, dated 1979).
Some entries share one result that the patent states for a list of compounds.

Test system: lymphoid leukemia L1210
Assay: Intraperitoneal (IP) lymphoid leukemia L1210 transplanted mouse tumor test
Format: in vivo, murine
Settings: L1210 system, Q4D and QD1-9 schedules
From the text: ^(a) Day 1-9 treatment schedule (9 injections)
^(b) Day 1,5,9 treatment schedule (3 injections)
^(c) Day 1 only treatment schedule (1 injection)
^(f) Percentage increase in life span of treated animals [(treated
survival .div. control survival) × 100%] - 100%

| Compound | antitumor activity |
| --- | --- |
| CCOC(=O)NC1=C(N2CC2)C(=O)C(NC(=O)OCC)=C(N2CC2)C1=O [Compound 9, 2,5-Diaziridinyl-3,6-bis (carboethoxyamino)-1,4-benzoquinone] | only compound No. 9 was active |
| CC(=O)NC1=C(N2CC2(C)C)C(=O)C(NC(C)=O)=C(N2CC2(C)C)C1=O [Compound 21] | only compound No. 9 was active |
| CCSC1=C(N2CC2)C(=O)C(SCC)=C(N2CC2)C1=O [Compound 5] | only compound No. 9 was active |
| CCOC(=O)NC1=C(NCCCl)C(=O)C(NC(=O)OCC)=C(NCCCl)C1=O [Compound 12] | only compound No. 9 was active |
| CCCSC1=C(N2CC2)C(=O)C(SCCC)=C(N2CC2)C1=O [Compound 6] | only compound No. 9 was active |
| CCOC(=O)NC1=C(N2CC2(C)C)C(=O)C(NC(=O)OCC)=C(N2CC2(C)C)C1=O [Compound 11] | only compound No. 9 was active |
| CC1(C)CN1C1=C(Br)C(=O)C(N2CC2(C)C)=C(Br)C1=O [Compound 17] | only compound No. 9 was active |
| CC1(C)CN1C1=C(Cl)C(=O)C(N2CC2(C)C)=C(Cl)C1=O [Compound 3] | only compound No. 9 was active |
| CCOC(=O)NC1=C(N2CC2C)C(=O)C(NC(=O)OCC)=C(N2CC2C)C1=O (stereo not drawn) [Compound 10] | only compound No. 9 was active |
